{"source": "PubChem BioAssay AID1259254 (NCATS, 2017)", "purpose": "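Genome-wide screen for genes that prevent DNA re-replication in cancer cells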 (primary screen)", "system": "human HCT116 colorectal cancer cells", "reagent": "single siRNA against human genes", "timing": "3 days", "read-out": "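Nuclei stained with Hoechst and imaged; cell-cycle phase assigned by DNA content; G2 share scaled per plate, non-targeting siRNA 0%, GMNN siRNA 100%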", "scale": "G2 robust z-score: higher = more G2 cells, more excess DNA replication", "rule for the call": "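Active siRNAs have a G2 robust z of 5 or more median absolute deviations over the median, which in these data means about 38% or higher of GMNN control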", "note": "This is one part, drawn at random, of about 59,000 reagents. In the full data, about 1,550 (2.6%) are marked active. 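G2 share is only a proxy for re-replication; each gene was hit by three separate siRNAs, and active genes were retested.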 Reagents against one gene are numbered here. Further read-outs or replicates are left out here. The record does not give: the amount of reagent."}
{"gene": "DPP10", "siRNA no.": 1, "G2 robust z-score": -0.524, "call": "inactive"}
{"gene": "DPP10", "siRNA no.": 2, "G2 robust z-score": -0.823, "call": "inactive"}
{"gene": "DPP10", "siRNA no.": 3, "G2 robust z-score": 2.35, "call": "inactive"}
{"gene": "SH3RF1", "siRNA no.": 1, "G2 robust z-score": -0.621, "call": "inactive"}
{"gene": "SH3RF1", "siRNA no.": 2, "G2 robust z-score": -0.491, "call": "inactive"}
{"gene": "SH3RF1", "siRNA no.": 3, "G2 robust z-score": -0.865, "call": "inactive"}
{"gene": "HPRT1", "siRNA no.": 1, "G2 robust z-score": 1.53, "call": "inactive"}
{"gene": "HPRT1", "siRNA no.": 2, "G2 robust z-score": -0.386, "call": "inactive"}
{"gene": "HPRT1", "siRNA no.": 3, "G2 robust z-score": -0.464, "call": "inactive"}
{"gene": "SUN3", "siRNA no.": 1, "G2 robust z-score": 0.473, "call": "inactive"}
{"gene": "SUN3", "siRNA no.": 2, "G2 robust z-score": 2.29, "call": "inactive"}
{"gene": "SUN3", "siRNA no.": 3, "G2 robust z-score": 0.18, "call": "inactive"}
{"gene": "ALDOB", "siRNA no.": 1, "G2 robust z-score": 4.91, "call": "inactive"}
{"gene": "ALDOB", "siRNA no.": 2, "G2 robust z-score": 7.66, "call": "active"}
{"gene": "ALDOB", "siRNA no.": 3, "G2 robust z-score": -0.758, "call": "inactive"}
{"gene": "GALNT6", "siRNA no.": 1, "G2 robust z-score": 0.728, "call": "inactive"}
{"gene": "GALNT6", "siRNA no.": 2, "G2 robust z-score": -0.562, "call": "inactive"}
{"gene": "GALNT6", "siRNA no.": 3, "G2 robust z-score": 0.907, "call": "inactive"}
{"gene": "FAM133B", "siRNA no.": 1, "G2 robust z-score": -0.0782, "call": "inactive"}
{"gene": "FAM133B", "siRNA no.": 2, "G2 robust z-score": -0.0293, "call": "inactive"}
{"gene": "FAM133B", "siRNA no.": 3, "G2 robust z-score": 0.489, "call": "inactive"}
{"gene": "NKRF", "siRNA no.": 1, "G2 robust z-score": 0.631, "call": "inactive"}
{"gene": "NKRF", "siRNA no.": 2, "G2 robust z-score": -0.937, "call": "inactive"}
{"gene": "NKRF", "siRNA no.": 3, "G2 robust z-score": 0.0222, "call": "inactive"}

Called active, of those listed so far:
{"gene": "ALDOB", "siRNA no.": 2, "G2 robust z-score": 7.66, "call": "active"}
